{"source": "PubChem BioAssay AID485353", "about": "(National Center for Advancing Translational Sciences (NCATS), 2010)", "note": "Out of some 330,000 compounds screened, about 610 (0.18%) were called active. This list was built around the results that the source calls inconclusive (neither active nor inactive); the mix of calls is not that of the screen. The call rests on the fitted dose curve. Potencies beside an inconclusive call are fits to weak or partial responses and may not hold up. Potency means the concentration at half of the fitted maximal effect.", "data": [{"test": "qHTS of Yeast-based Assay for SARS-CoV PLP; further: nearly all actives have a fitted effect of over 55% in size; on activity, positive = growth rescue: 0% is about no effect", "conditions": "S. cerevisiae expressing SARS-CoV PLpro; Potency: growth rescue; activity, positive = growth rescue: at 32.9 µM (top of the series)", "values": [{"molecule": "COc1cc(OC)c(-c2c3cc(O)c(=O)cc-3oc3cc(O)c(O)cc23)cc1OC", "Potency": "active: 3.16 µM"}, {"molecule": "CC1C(=O)NN=C1C(=O)N/N=C\\c1ccc(O)cc1O", "note": "(stereo not given)", "Potency": "inconclusive: 1.58 µM [activator, full curve]"}, {"molecule": "Cc1cccc(NS(=O)(=O)c2cc(OCC(N)=O)c(C)cc2Cl)c1", "Potency": "inconclusive: 1.12 µM [activator, partial curve]"}, {"molecule": "COc1ccc(C(=O)CCC(=O)N2CCN(c3cccc(Cl)c3)CC2)cc1", "Potency": "inconclusive: 20 µM [activator, single point]"}, {"molecule": "CCC(NC(=O)NC1CCCCC1)c1ccccc1", "note": "(stereo not given)", "activity, positive = growth rescue": "inactive: -0.539%"}, {"molecule": "O=C(CNC(=O)c1ccc2c(c1)OCO2)N/N=C(Br)/C=C/c1ccccc1", "Potency": "inconclusive: 0.316 µM [activator, full curve, poor fit]"}, {"molecule": "c1ccc(-n2cc(CN3CCC(N4CCOCC4)CC3)c(-c3ccc4c(c3)OCO4)n2)cc1", "activity, positive = growth rescue": "inactive: 0.344%"}, {"molecule": "CCCCn1c(-c2csc3ccccc23)n[nH]c1=S", "Potency": "inconclusive: 22.4 µM [activator, single point]"}, {"molecule": "C/C(=N/NC(=O)C1COc2ccccc2O1)c1ccco1", "note": "(stereo not given)", "Potency": "inconclusive: 22.4 µM [activator, partial curve, poor fit]"}, {"molecule": "COc1ccc2cc(C#N)c(N3CCN(C(=O)c4ccccc4C)CC3)nc2c1", "activity, positive = growth rescue": "inactive: -1.51%"}, {"molecule": "O=C(CCCNC(=O)c1ccc(Cl)cc1)NCc1ccccc1F", "activity, positive = growth rescue": "inactive: 0.482%"}, {"molecule": "NS(=O)(=O)c1ccc(NC(=O)c2cc(-c3cccs3)nc3ccccc23)cc1", "activity, positive = growth rescue": "inactive: 5.92%"}, {"molecule": "Cc1ccsc1/C=C(\\C#N)C(=O)Nc1c(C)n(C)n(-c2ccccc2)c1=O", "Potency": "inconclusive: 20 µM [activator, single point]"}, {"molecule": "CCOc1ccc2[nH]c3ncccc3c(=O)c2c1", "activity, positive = growth rescue": "inactive: -3.33%"}, {"molecule": "Cc1cc(Cl)ccc1OCCCC(=O)NO", "Potency": "inconclusive: 4.47 µM [activator, single point]"}, {"molecule": "CCOC(=O)C1=C(COC(=O)/C=C/c2ccco2)NC(=O)NC1C", "note": "(stereo not given)", "Potency": "inconclusive: 3.16 µM [activator, single point]"}, {"molecule": "COc1ccc(-c2cc(C)no2)cc1S(=O)(=O)NCC1CCN(Cc2cc(C)ccc2C)CC1", "Potency": "inconclusive: 3.98 µM [activator, single point]"}, {"molecule": "Cc1ccc(S(=O)(=O)c2c(C)nn(-c3ccccc3)c2OC(=O)c2ccco2)cc1", "activity, positive = growth rescue": "inactive: -13.9%"}, {"molecule": "CCC(=O)NC(=S)Nc1ccc(NC(=O)c2cccnc2)cc1", "activity, positive = growth rescue": "inactive: 1.08%"}, {"molecule": "CCCC(=O)N1CCN(c2ccc([N+](=O)[O-])c(NC(C)c3ccccc3)c2)CC1", "note": "(stereo not given)", "Potency": "inconclusive: 0.355 µM [activator, full curve]"}, {"molecule": "COc1ccc(C(=O)Nc2ccc(NC(=O)c3ccccc3F)cn2)cc1", "activity, positive = growth rescue": "inactive: -6.34%"}, {"molecule": "CCOC(=O)N/N=C(/C)c1ccc([N+](=O)[O-])o1", "Potency": "inconclusive: 4.47 µM [activator, single point]"}, {"molecule": "COc1ccc(CC(NC(C)=O)C(=O)NC2CCN(c3nc(C)cc(C)c3C#N)CC2)c(OC)c1", "note": "(stereo not given)", "Potency": "inconclusive: 20 µM [activator, single point]"}, {"molecule": "Cc1ccc(-c2nnc(SCC(=O)CC(=O)Nc3ccccc3)n2C)cc1", "Potency": "inconclusive: 10 µM [activator, single point]"}, {"molecule": "CC(=C/c1ccco1)/C=N/NC(=O)c1nnn(-c2nonc2N)c1CN(C)C", "activity, positive = growth rescue": "inactive: -4.44%"}, {"molecule": "O=C(CCN1C(=O)c2ccccc2C1=O)Nc1nc2ccccc2s1", "Potency": "inconclusive: 2.51 µM [activator, full curve]"}, {"molecule": "CCCOc1ccc(Br)cc1CSC(=N)N", "Potency": "inconclusive: 10 µM [activator, partial curve]"}, {"molecule": "COc1ccc(C(C)NC(=O)c2ccccc2Cl)cc1OC", "note": "(stereo not given)", "Potency": "active: 11.2 µM"}, {"molecule": "C=CCNc1oc(-c2ccc(Cl)cc2)nc1C#N", "Potency": "inconclusive: 7.08 µM [activator, partial curve]"}, {"molecule": "C=CCc1ccccc1Oc1cc(F)nc(N)n1", "activity, positive = growth rescue": "inactive: -2.12%"}, {"molecule": "O=C(NC(=S)Nc1ccccc1N1CCCC1)c1ccc([N+](=O)[O-])cc1", "Potency": "inconclusive: 5.01 µM [activator, partial curve]"}, {"molecule": "Cc1nc2c(n1O)CCC/C2=N\\O", "activity, positive = growth rescue": "inactive: 4.97%"}, {"molecule": "O=C(Cn1nnc(-c2ccccc2)n1)N/N=C/c1cc([N+](=O)[O-])ccc1O", "Potency": "inconclusive: 1.78 µM [activator, full curve]"}, {"molecule": "COc1ccc(-c2cc3ccc(OCC(=O)NCC4CCC(C(=O)O)CC4)cc3oc2=O)cc1", "note": "(stereo not given)", "Potency": "inconclusive: 3.55 µM [activator, single point]"}, {"molecule": "Cc1ccc(C(=O)NCc2ccc(N3CCN(C)CC3)cc2)cc1C", "activity, positive = growth rescue": "inactive: -3.5%"}, {"molecule": "O=C(O)CC(CNS(=O)(=O)c1cccc2nsnc12)c1ccccc1", "note": "(stereo not given)", "activity, positive = growth rescue": "inactive: -0.222%"}, {"molecule": "Cc1cc2oc(C(=O)N3CCN(CCc4ccccn4)CC3)c(C)c2cc1C", "Potency": "inconclusive: 15.8 µM [activator, single point]"}, {"molecule": "O=C(COc1ccccc1[N+](=O)[O-])Nc1cccc(Cl)c1N1CCOCC1", "Potency": "inconclusive: 20 µM [activator, single point]"}, {"molecule": "Cc1ccc(OCC(=O)N2CCC(N3CC(C)CC(C)C3)CC2)cc1", "note": "(stereo not given)", "Potency": "inconclusive: 11.2 µM [activator, single point]"}, {"molecule": "COc1ccc(S(=O)(=O)N2CCC(C(=O)NCC3CCCO3)CC2)cc1C", "note": "(stereo not given)", "activity, positive = growth rescue": "inactive: 8.81%"}, {"molecule": "COc1ccc(OCC(=O)Nc2ccc(S(=O)(=O)N(C)c3ccccc3)cc2)cc1", "Potency": "inconclusive: 20 µM [activator, single point]"}, {"molecule": "CCOc1cc(CNc2ccccc2)cc(Br)c1OCc1ccccc1F", "Potency": "inconclusive: 3.16 µM [activator, single point]"}, {"molecule": "NC(=S)N/N=C/c1ccc2c(c1)OCCO2", "Potency": "active: 14.1 µM"}, {"molecule": "CC(C)(C)NS(=O)(=O)c1ccc(CCC(=O)NCc2cccnc2)cc1", "activity, positive = growth rescue": "inactive: -2.73%"}, {"molecule": "COc1ccc(C(=O)N/C(=C\\c2ccco2)C(=O)NCc2ccco2)cc1", "Potency": "inconclusive: 2.51 µM [activator, single point]"}, {"molecule": "Oc1ccc(CN2CCC(Cc3ccccc3)CC2)c2cccnc12", "Potency": "active: 2.51 µM"}, {"molecule": "Cc1nn(CC2CC2)c(=O)n1-c1ccc(Oc2ccccc2)cc1", "activity, positive = growth rescue": "inactive: -1.01%"}, {"molecule": "C(=N\\Nc1nc2ccccc2[nH]1)/c1ccc2c(c1)OCO2", "activity, positive = growth rescue": "inactive: -0.0444%"}, {"molecule": "CC(C)c1ccc2oc(=O)cc(CN3CCN(c4ccc(F)cc4)CC3)c2c1", "Potency": "inconclusive: 3.98 µM [activator, single point]"}, {"molecule": "COc1ccc(OC)c(-c2cc(C(=O)NC3CCCC3)c3ccccc3n2)c1", "Potency": "inconclusive: 2.24 µM [activator, single point]"}, {"molecule": "Cc1cccc(N(C(=O)C(F)(F)F)C(C(=O)NC2CCCCC2)c2cccs2)c1", "note": "(stereo not given)", "activity, positive = growth rescue": "inactive: -0.737%"}, {"molecule": "CN(C)C(=O)COC(=O)c1cccnc1Nc1ccccc1F", "Potency": "inconclusive: 11.2 µM [activator, partial curve]"}, {"molecule": "Cc1ccc(-c2nsc3c(N4CCN(C(=O)c5ccco5)CC4)ncnc23)cc1", "Potency": "inconclusive: 20 µM [activator, single point]"}, {"molecule": "COC(=O)c1sc(N2C(=O)C(O)=C(C(=O)c3ccc(C)o3)C2c2ccc(F)cc2)nc1C", "note": "(stereo not given)", "Potency": "inconclusive: 14.1 µM [activator, partial curve]"}, {"molecule": "CCCNc1nc(N)nc(-c2cc(Cl)ccc2OC)n1", "Potency": "inconclusive: 4.47 µM [activator, single point]"}, {"molecule": "CCCCOc1cccc(C(=O)NC(=S)Nc2cccnc2)c1", "Potency": "inconclusive: 11.2 µM [activator, single point]"}, {"molecule": "COc1ccc(C)cc1NC(=O)c1cc2ccccc2cc1OCC(=O)NCc1ccco1", "Potency": "active: 3.55 µM"}, {"molecule": "COc1cc(/C=C/C(=O)O)ccc1OS(=O)(=O)c1cc(Br)ccc1C", "Potency": "active: 10 µM"}, {"molecule": "CCCc1ccc(/C=C2\\C(=O)c3ccccc3C(O)=C2C(=O)OCC)cc1", "activity, positive = growth rescue": "inactive: -28.5%"}, {"molecule": "CC1CCN(C(=O)COC(=O)CCC(=O)c2ccc(F)cc2)CC1", "Potency": "inconclusive: 2.51 µM [activator, single point]"}, {"molecule": "Cc1nn(CC(=O)N2CCOCC2)c(=O)c2c1sc1ccccc12", "Potency": "inconclusive: 12.6 µM [activator, single point]"}, {"molecule": "Cc1ccc(C(C)CCN2CCC(n3nccc3NC(=O)c3ccccc3)CC2)o1", "note": "(stereo not given)", "Potency": "inconclusive: 4.47 µM [activator, single point]"}, {"molecule": "O=C(N/N=C/c1c(O)n(C2CC2)c(=S)[nH]c1=O)c1ccccc1O", "Potency": "active: 12.6 µM"}, {"molecule": "O=C(NCc1csc(-c2ccccc2)n1)c1cc(F)cc2c1OCOC2", "activity, positive = growth rescue": "inactive: -0.107%"}, {"molecule": "N#Cc1ccc(OCC(=O)NC2CCCCCC2)cc1", "Potency": "inconclusive: 3.98 µM [activator, single point]"}, {"molecule": "Cc1cccc[n+]1CC(=O)N1c2ccccc2Sc2ccccc21", "Potency": "inconclusive: 2.24 µM [activator, single point]"}, {"molecule": "CCn1c(SCC(=O)Nc2cccc(S(=O)(=O)N(C)c3ccccc3)c2)nnc1C1CC1", "activity, positive = growth rescue": "inactive: -2.23%"}, {"molecule": "O=c1/c(=C/c2ccccn2)sc2n1CN(c1ccccc1)CN=2", "Potency": "inconclusive: 2.51 µM [activator, single point]"}, {"molecule": "O=C(COC(=O)c1ccc2ncsc2c1)Nc1ncc(Cl)cc1Cl", "Potency": "active: 22.4 µM"}, {"molecule": "COC(=O)c1ccc(NC(=O)C(=O)N2CCN(C(=S)Nc3cccc(C)c3C)CC2)cc1", "activity, positive = growth rescue": "inactive: -35.1%"}, {"molecule": "O=C(CC12CC3CC(CC(C3)C1)C2)NC(=S)N1CCCCC1", "Potency": "inconclusive: 20 µM [activator, single point]"}, {"molecule": "O=C(CSc1nnc(-c2ccncc2)n1Cc1ccco1)Nc1nccs1", "Potency": "inconclusive: 22.4 µM [activator, partial curve, poor fit]"}, {"molecule": "COc1ccc2nc(-c3ccccc3)[nH]c2c1", "activity, positive = growth rescue": "inactive: -24.4%"}, {"molecule": "CCc1ccccc1Nc1ccc(C(=O)O)cc1N", "Potency": "inconclusive: 3.55 µM [activator, single point]"}, {"molecule": "CCOc1ccc(S(=O)(=O)NCCC(=O)NCC(c2ccco2)N2CCCCC2)cc1", "note": "(stereo not given)", "activity, positive = growth rescue": "inactive: -6.84%"}]}]}
